Results on ten molecules are retold here after patent US20240400677A1.

Where a chain is given by its changes, count along the chain named. Results are given in words; binding and its absence hold for the method and conditions named. For some of these results: A result given as binding can be weak or reduced; the word gives no strength.

B1: Antibody 11 (scFv, V domains shown)
VH: QVQLVQSGAEVKKPGASVKVSCKASGYTFTSYDINWVRQAPGQGLEWMGWMNPNSGNTGYAQKFQGRVTMTRDTSTSTVYMELSSLRSEDTAVYYCAKGAVAGTYYYYGMDVWGQGTTVTVSS
VL: DIQMTQSPSSLSASVGDRVTITCRASQTINNYLNWYQQKPGKAPKLLIYDASNLETGVPSRFSGSGSGTDFTLTISSLQPEDFATYYCQQANSFPLTFGQGTKVEIK
B2: Antibody 13 (scFv, V domains shown)
VH: EVQLLESGGGLVQPGGSLRLSCAASGFTFSNSDMNWVRQAPGKGLEWVSYISSSGNTIYYADSVKGRFTISRDNSKNTLYLQMNSLRAEDTAVYYCARSNWNYPLDYYYMDVWGKGTTVTVSS
VL: DIVMTQSPLSLPVTPGEPASISCRSSQSLLHSNGYNYLDWYLQKPGQSPQLLIYAASSLQSGVPDRFSGSGSGTDFTLKISRVEAEDVGVYYCMQGTHWPPTFGQGTKVEIK
B3: Antibody 37 (scFv, V domains shown)
VH: QVQLVQSGAEVKKPGASVKVSCKASGYTLNNYDINWVRQAPGQGLEWMGWISGYNGNTNYAQKLQGRVTMTRDTSTSTVYMELSSLRSEDTAVYYCARVGSSWEENDQWGQGTLVTVSS
VL: DIQMTQSPSSLSASVGDRVTITCRASQSISRWLAWYQQKPGKAPKLLIYAASSLESGVPSRFSGSGSGTDFTLTISSLQPEDFATYYCQQTHSFPLTFGGGTKVEIK
B4: Antibody 78 (antibody, V domains shown)
VH: QVQLVQSGAEVKKPGASVKVSCKASGYTFTTYGISWVRQAPGQGLEWMGWMDPNSGSTGYAQKFQGRVTMTRDTSTSTVYMELSSLRSEDTAVYYCARGRGNSYYYYYMDVWGKGTTVTVSS
VL: B1 VL with T28R, N30G, N31S, D50G, E55Q, T56S, L96F, Q100P, E105D
B5: Antibody 81 (antibody, V domains shown)
VH: QVQLVQSGAEVKKPGASVKVSCKASGYTFTSYDINWVRQAPGQGLEWMGWISGYNGNTNYAQKFQGRVTMTRDTSTSTVYMELSSLRSEDTAVYYCARSFDWLLLLDYWGQGTLVTVSS
VL: B3 VL with R31S, A50D, S52T, S53T, T91Y, H92D, F94Y, L96W, G100Q, V104L
B6: Antibody 75 (antibody, V domains shown)
VH: QVQLVQSGAEVKKPGSSVKVSCKASGGTFSNYAISWVRQAPGQGLEWMGGIIPIFGSTASYAQKFQGRVTITADESTSTAYMELSSLRSEDTAVYYCARGVGDDTLTDWGQGTLVTVSS
VL: B2 VL with G96A, T97L, H98Q, W99T, P101L, Q105G
B7: Antibody 74 (antibody, V domains shown)
VH: QVQLVQSGAEVKKPGASVKVSCKASGGTFSNYGFSWVRQAPGQGLEWMGWMSPSSGNTGYAQKFQGRVTMTRDTSTSTVYMELSSLRSEDTAVYYCARERSGSYFDYWGQGTLVTVSS
VL: EIVMTQSPATLSVSPGERATLSCRASQSVSSYLAWYQQKPGQAPRLLIYGTSTRATGIPARFSGSGSGTEFTLTISSLQSEDFAVYYCQQYGSLPFTFGQGTRLEIK
B8: Antibody 82 (antibody, V domains shown)
VH: QVQLVQSGAEVKKPGASVKVSCKASGHTFNNNYIHWVRQAPGQGLEWMGIINPSGGSTSYAQKFQGRVTMTRDTSTSTVYMELSSLRSEDTAVYYCARQIQDYGYYYYGMDVWGQGTTVTVSS
VL: B7 VL with S31K, G50A, T51I, T53A, T56A, G92Y, L94S, F96P, R103K, L104V
B9: Antibody 79 (antibody, V domains shown)
VH: QVQLVQSGAEVKKPGASVKVSCKASGYTFTSYYMHWVRQAPGQGLEWMGWMNPNSGNTGYAQKFQGRVTMTRDTSTSTVYMELSSLRSEDTAVYYCARDQMYSSYGMDVWGQGTTVTVSS
VL: B3 VL with Q27E, S30T, R31N, A50K, T91S, H92Y, S93G, F94T, L96Y, G100Q
B10: Antibody 80 (antibody, V domains shown)
VH: QVQLVQSGAEVKKPGASVKVSCKASGYTFTRYDINWVRQAPGQGLEWMGWMNPNSGNTGYAQKLQGRVTMTRDTSTSTVYMELSSLRSEDTAVYYCARERVGYCSSTSCLHPLDYWGQGTLVTVSS
VL: DIQMTQSPSSLSASVGDRVTITCRASQGIRNDLGWYQQKPGKAPKLLIYSASNLQSGVPSRFSGSGSGTDFTLTISSLQPEDFATYYCQQSYDVPLTFGGGTKVEIK

One assay addresses cynomolgus monkey SIRPβ1-His monomer protein (cynomolgus monkey). The assay can be described thus: BLI Octet, captured scFv PPE, cyno SIRP.
As to B1, the binding result is given as “binds”.
The same measure, in the same setting: for B2 the value was “binds”; for B3, “binds”.

Another assay deals with Human SIRPβ1 (plate-coated extracellular domain) (Homo sapiens). The assay can be described thus: ELISA, coated SIRP ECD (2 µg/mL), anti-human IgG, luminescence.
Consider B4, for which the binding result is given as “no binding (tested: about 40 µg/mL)”.
As for B5, the binding entry is “no binding (tested: about 40 µg/mL)”.
Still for that read-out and setting: as for B6, the entry is “no binding (tested: about 40 µg/mL)”; as for B7, “no binding (tested: about 40 µg/mL)”.
The same measure, in the same setting: as for B8, the entry is “no binding (tested: about 40 µg/mL)”.
For B9, the binding result is reported as “no binding (tested: about 40 µg/mL)”.
Regarding B10, the binding entry is recorded as “no binding (tested: about 40 µg/mL)”.
